Data as given in PubChem BioAssay AID1508597 (Cure First, 2020)

Purpose: 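Knock-downs altering ovarian cancer cell survival with or without PARP inhibitor rucaparib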 (primary screen)
System: human ovarian carcinoma lines grown from tumours: OCI-P5x (papillary serous) and OCI-C5x (clear cell)
Reagents: siRNA pool against human genes, 1.25 pmol siRNA per well
Duration: 72 h or 96 h, depending on the cell culture
Treatment: rucaparib 20 µM (about IC30) or vehicle, present until read-out
Read-out: 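ATP luminescence measured at 72 or 96 h according to the culture, then normalised and expressed as percent viability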
Reading the numbers: viability, normalised: higher = more viable cells remaining
Call rule: 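Active when normalised viability falls below 80 percent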
Meaning of the calls: active = viability under 80%; inactive = viability 80% or more
This is one part, drawn at random, of about 2,100 reagents. 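Calls flag viability under 80% in either arm, not effects specific to rucaparib; the reference for percent is not stated.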 Reagent sequences are not shown. Not given: the 100% reference.

no.	target	rucaparib or vehicle	cell line	technical replicate	viability, normalised (%)	Call
1	NECAB3	Rucaparib	OCI-C5x (clear cell)	1	66.7	active
2	NECAB3	Rucaparib	OCI-C5x (clear cell)	2	76.1	active
3	NECAB3	Rucaparib	OCI-C5x (clear cell)	3	74.9	active
4	NECAB3	Rucaparib	OCI-P5x (serous)	1	107	inactive
5	NECAB3	Rucaparib	OCI-P5x (serous)	2	104	inactive
6	NECAB3	Rucaparib	OCI-P5x (serous)	3	104	inactive
7	NECAB3	Vehicle	OCI-C5x (clear cell)	1	76.1	active
8	NECAB3	Vehicle	OCI-C5x (clear cell)	2	72.4	active
9	NECAB3	Vehicle	OCI-C5x (clear cell)	3	63.8	active
10	NECAB3	Vehicle	OCI-P5x (serous)	1	98.9	inactive
11	NECAB3	Vehicle	OCI-P5x (serous)	2	98.7	inactive
12	NECAB3	Vehicle	OCI-P5x (serous)	3	92.2	inactive

2 neighbouring records from above, quoted:
no.	target	rucaparib or vehicle	cell line	technical replicate	viability, normalised (%)	Call
7	NECAB3	Vehicle	OCI-C5x (clear cell)	1	76.1	active
8	NECAB3	Vehicle	OCI-C5x (clear cell)	2	72.4	active

The results go on:
no.	target	rucaparib or vehicle	cell line	technical replicate	viability, normalised (%)	Call
13	SMAD4	Rucaparib	OCI-C5x (clear cell)	1	33.6	active
14	SMAD4	Rucaparib	OCI-C5x (clear cell)	2	26.9	active
15	SMAD4	Rucaparib	OCI-C5x (clear cell)	3	40.1	active
16	SMAD4	Rucaparib	OCI-P5x (serous)	1	50.6	active
17	SMAD4	Rucaparib	OCI-P5x (serous)	2	51.5	active
18	SMAD4	Rucaparib	OCI-P5x (serous)	3	47.8	active
19	SMAD4	Vehicle	OCI-C5x (clear cell)	1	26.8	active
20	SMAD4	Vehicle	OCI-C5x (clear cell)	2	20.5	active
21	SMAD4	Vehicle	OCI-C5x (clear cell)	3	20.4	active
22	SMAD4	Vehicle	OCI-P5x (serous)	1	46.4	active
23	SMAD4	Vehicle	OCI-P5x (serous)	2	43.1	active
24	SMAD4	Vehicle	OCI-P5x (serous)	3	57.2	active
